{
  "source": "PubChem BioAssay (EPA / NIEHS)",
  "note": "Where “and” joins values, the source holds several entries; their conditions need not be identical. Equal values may be shown once. Inconclusive means that the source gave no clear call. Such entries were picked first, then a sample of the others. A potency beside an inconclusive call is a rough fit, not a confirmed value. Calls of active or inactive are those of the source. How the source made its calls: active means hit-call score of the fitted dose curve at least 0.9, where 1 is the maximum; inconclusive means response in the unintended direction; inactive means score below 0.9.",
  "data": [
    {"experiment": "TOX21_p53_BLA_p4_viability: Viability Assessment in the Tox21 HCT-116 p53 Agonism Beta-lactamase Assay, Phase 4 (AID 2283597);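 further: hits lower the luminescence signal meaning cytotoxicity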", "outline": "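Luminescent ATP readout (CellTiter-Glo, 30 min, room temperature) in the same wells as the p53 bla ratio. HCT116 cells were treated for 16 h at 37C with DMSO-dissolved compounds.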", "values": [
      {"smiles": "CCCCC(CC)(CO)CO", "AC50": "inconclusive: 46.1 µM"},
      {"smiles": "CC(C)=CCCC(C)=CCCC(C)=CCO", "outcome": "inactive"},
      {"smiles": "CCCCCCCCc1ccc(S(=O)(=O)O)cc1", "AC50": "active: 33.7 µM"},
      {"smiles": "Cc1ccc2ccccc2n1", "AC50": "inconclusive: 46.1 µM"},
      {"smiles": "COC(C)CCO", "note": "(stereo not given)", "AC50": "inconclusive: 46.1 µM"},
      {"smiles": "CCC(C)(C)c1cc(O)c(C(C)(C)CC)cc1O", "AC50": "inconclusive: 11.1 µM"},
      {"smiles": "C[Si](C)(C)O[Si](C)(C)O[Si](C)(C)C", "AC50": "inconclusive: 0.075 µM"},
      {"smiles": "CCCCCCCCCCCC(=O)OC[C@@H](O)[C@H]1OC[C@H](O)[C@H]1O", "AC50": "inconclusive: 23 µM"},
      {"smiles": "CNC(=S)NC", "AC50": "active: 46.1 µM"},
      {"smiles": "CCOC(=O)NNc1nncc2ccccc12", "AC50": "inconclusive: 30 µM and inconclusive: 23 µM"},
      {"smiles": "Nc1cc(Cl)c(O)c(Cl)c1", "outcome": "inactive"},
      {"smiles": "CN(C)CCCN(C)C", "AC50": "inconclusive: 2.53 µM"},
      {"smiles": "CCOc1ccccc1O", "AC50": "inconclusive: 46.1 µM"},
      {"smiles": "NNc1nc(-c2ccc(N)cc2)cs1", "outcome": "inactive"},
      {"smiles": "FC1(F)C(F)(F)C(F)(F)C2(F)C(F)(C1(F)F)C(F)(F)C(F)(F)C1(F)C(F)(F)C(F)(F)C(F)(F)C(F)(F)C12F", "note": "(stereo not given)", "AC50": "inconclusive: 38.9 µM"},
      {"smiles": "O=C(O)CNc1ccccc1", "AC50": "inconclusive: 46.1 µM"},
      {"smiles": "CSc1c(Cl)c(Cl)c(Cl)c(Cl)c1Cl", "outcome": "inactive"},
      {"smiles": "O=C1OC[C@H](Cc2cccc(O)c2)[C@H]1Cc1cccc(O)c1", "AC50": "inconclusive: 15.4 µM"},
      {"smiles": "CCCCCCC1CCCC(=O)O1", "note": "(stereo not given)", "outcome": "inactive"},
      {"smiles": "CC(C)CCOC(=O)c1ccccc1", "AC50": "inconclusive: 46.1 µM"}
    ]}
  ]
}
